We go through two molecules from paper PMC5007517.

By UniProt entry, the sequences of proteins in these tests, tags left out.
UniProt A0A287B5A9: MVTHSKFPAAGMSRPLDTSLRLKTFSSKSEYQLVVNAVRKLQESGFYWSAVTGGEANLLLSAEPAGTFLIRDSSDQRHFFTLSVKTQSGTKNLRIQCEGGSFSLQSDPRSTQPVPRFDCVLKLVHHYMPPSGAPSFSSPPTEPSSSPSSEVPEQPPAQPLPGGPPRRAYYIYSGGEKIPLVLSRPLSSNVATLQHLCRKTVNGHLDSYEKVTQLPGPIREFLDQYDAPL

These are yes or no findings as the source states them, for the method shown. In cells and extracts the contact can be indirect. Some binding calls cover weakened binding; strength is not graded here. Where a sequence is shown, tags or fusion partners need not be part of it.

Experiment [1] deals with T1, HA-tagged TNF-receptor-associated factor (TRAF) 2 (pig (amplified from PK-15 porcine kidney cells)) (UniProt F1RVZ4).
T1 sequence: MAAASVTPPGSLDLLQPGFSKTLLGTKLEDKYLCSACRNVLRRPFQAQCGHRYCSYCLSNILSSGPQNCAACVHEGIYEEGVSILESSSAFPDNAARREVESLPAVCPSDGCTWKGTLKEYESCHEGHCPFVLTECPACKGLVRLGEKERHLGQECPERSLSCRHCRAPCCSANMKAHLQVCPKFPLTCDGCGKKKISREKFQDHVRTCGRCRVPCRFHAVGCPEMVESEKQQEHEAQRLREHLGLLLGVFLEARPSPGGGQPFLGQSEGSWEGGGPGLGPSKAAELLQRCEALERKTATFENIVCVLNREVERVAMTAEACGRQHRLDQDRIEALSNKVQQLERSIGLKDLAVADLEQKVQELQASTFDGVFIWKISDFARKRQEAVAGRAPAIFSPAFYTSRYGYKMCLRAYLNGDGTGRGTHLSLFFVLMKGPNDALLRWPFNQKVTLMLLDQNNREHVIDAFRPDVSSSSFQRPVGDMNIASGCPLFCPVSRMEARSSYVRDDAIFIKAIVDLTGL

The target in experiment [2] is FLAG-tagged SOCS3 (suppressor of cytokine signaling 3) (pig (amplified from PK-15 porcine kidney cells)).

With “FLAG-tagged SOCS3 (suppressor of cytokine signaling 3) (from UniProt A0A287B5A9 1-229)”, the binding entry in experiment [1] was “binds”.

B1: HA-tagged TNF-receptor-associated factor (TRAF) 2 (protein, UniProt F1RVZ4 1-520)
chain: MAAASVTPPGSLDLLQPGFSKTLLGTKLEDKYLCSACRNVLRRPFQAQCGHRYCSYCLSNILSSGPQNCAACVHEGIYEEGVSILESSSAFPDNAARREVESLPAVCPSDGCTWKGTLKEYESCHEGHCPFVLTECPACKGLVRLGEKERHLGQECPERSLSCRHCRAPCCSANMKAHLQVCPKFPLTCDGCGKKKISREKFQDHVRTCGRCRVPCRFHAVGCPEMVESEKQQEHEAQRLREHLGLLLGVFLEARPSPGGGQPFLGQSEGSWEGGGPGLGPSKAAELLQRCEALERKTATFENIVCVLNREVERVAMTAEACGRQHRLDQDRIEALSNKVQQLERSIGLKDLAVADLEQKVQELQASTFDGVFIWKISDFARKRQEAVAGRAPAIFSPAFYTSRYGYKMCLRAYLNGDGTGRGTHLSLFFVLMKGPNDALLRWPFNQKVTLMLLDQNNREHVIDAFRPDVSSSSFQRPVGDMNIASGCPLFCPVSRMEARSSYVRDDAIFIKAIVDLTGL
In the case of B1, the binding result in experiment [2] is given as “binds”.
